# Primary screen of a compound library

By UniProt entry, the sequences of proteins in these tests, tags left out.
UniProt E9BF75, entry or part of it: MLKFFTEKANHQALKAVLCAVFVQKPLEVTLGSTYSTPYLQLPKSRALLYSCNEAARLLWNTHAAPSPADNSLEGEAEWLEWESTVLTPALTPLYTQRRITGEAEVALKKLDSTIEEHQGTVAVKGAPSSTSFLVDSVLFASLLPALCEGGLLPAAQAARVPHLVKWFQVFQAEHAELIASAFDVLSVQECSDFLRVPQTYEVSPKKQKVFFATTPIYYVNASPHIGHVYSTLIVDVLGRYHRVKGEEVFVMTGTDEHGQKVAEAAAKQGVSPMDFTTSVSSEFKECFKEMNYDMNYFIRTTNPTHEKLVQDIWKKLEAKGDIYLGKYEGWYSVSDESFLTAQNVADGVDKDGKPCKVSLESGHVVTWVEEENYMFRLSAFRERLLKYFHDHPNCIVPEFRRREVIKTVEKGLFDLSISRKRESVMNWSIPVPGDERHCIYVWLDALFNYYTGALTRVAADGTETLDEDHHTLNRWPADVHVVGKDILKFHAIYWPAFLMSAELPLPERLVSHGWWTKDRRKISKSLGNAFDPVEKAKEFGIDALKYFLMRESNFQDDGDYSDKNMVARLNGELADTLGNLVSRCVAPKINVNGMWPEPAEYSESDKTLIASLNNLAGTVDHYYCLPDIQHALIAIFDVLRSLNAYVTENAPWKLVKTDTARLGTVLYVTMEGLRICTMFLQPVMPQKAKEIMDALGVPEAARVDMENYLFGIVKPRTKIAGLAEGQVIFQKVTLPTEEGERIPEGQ

Results are percentages, as filed. The record does not define 0% and 100%; most values in the screen are far below 50% and negative numbers occur (in some assays of this library far below -100). Compounds were drawn at random from those tested, without regard to their results. A dash means the value is not listed here; it may have been measured.

LdMetRS: 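Primary screen of methionyl-tRNA synthetase; the read-out is not stated. Target: Methionyl-tRNA synthetase (putative), Leishmania donovani (UniProt E9BF75). The test concentration is not given. Values are per cent inhibition. About 68,000 compounds were tested under these conditions; 0.035% (about 24) showed 50% or more at least once.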
Mtb heat-shock: 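Assay on Mycobacterium tuberculosis, filed only as a heat shock assay from Cornell; the read-out is not stated. The concentration is filed as 10 mM, unlikely as a test dose, so the dose is not known. The record gives no direction; compounds that gave an IC50 in retests scored well above the rest, so higher reads as stronger inhibition. Of about 69,000 compounds tested this way, about 930 (1.4%) reached 50% or more in at least one test.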

Result for CCC(=O)N1CCCC1c1nccnc1Nc1nc(C)cc(C)n1 (stereo not drawn) was LdMetRS: 9.441%; Mtb heat-shock: -5.332%. Fc1ccc(NCc2ncc[nH]2)cc1Br gave LdMetRS: 6.62%; Mtb heat-shock: -1.01%. Result for CCOC(=O)N(C)C1CCN(Cc2cnc3ccccn23)CC1 was LdMetRS: -4.19%; Mtb heat-shock: -16.12%. COc1ccc(Cl)cc1CS(=O)(=O)Cc1cc(C)on1 gave LdMetRS: 9.524%; Mtb heat-shock: -10.27%. O=C(c1ccoc1)N1CC[C@@H]2O[C@@H](COCc3ccncc3)CC[C@@H]21 read LdMetRS: 8.667%. With Cc1noc(C)c1CN1CCOC2(CCCN(c3nncs3)C2)C1.O=C(O)C(F)(F)F (stereo not drawn) the screen gave Mtb heat-shock: -24.31%.

With [H][C@@]12CCN(Cc3nccs3)C[C@@]1([H])O[C@@H](C)C2 the screen gave Mtb heat-shock: -9.077%. O=C(C1CCC1)N1CCN(c2snc3ccccc23)CC1 read LdMetRS: 2.778%; Mtb heat-shock: -2.336%. With Cc1cccc(CN2CCOCC3(CCN(C4CCOCC4)C3)C2)n1 (stereo not drawn) the screen gave LdMetRS: 12.42%. With [H][C@@]12CCN(Cc3ccncc3)[C@]1([H])CC[C@@H](C(=O)N1CCCCO1)O2 the screen gave Mtb heat-shock: -21.06%. C[C@@H]1CN(CCC(=O)NCc2ccccc2Cl)C[C@@]1(O)C1CC1 read LdMetRS: 12.64%; Mtb heat-shock: -9.311%. [H][C@]12CCN(C(C)=O)[C@@]1([H])CC[C@H](COCC(=O)N1CCCC1)O2 gave Mtb heat-shock: -28.84%.

O=S(=O)(c1ccc(F)cc1)N1CC[C@H]2[C@H]1CCN2c1ncccn1 read LdMetRS: 13.77%. Result for CCC(=O)N1CCN(C(=O)Nc2ccc(Cl)cc2)[C@H]2CS(=O)(=O)C[C@H]21 was LdMetRS: 12.81%. Cc1cccc(-c2noc(CN3CCCCC3Cn3cncn3)n2)c1 (stereo not drawn) gave LdMetRS: 15.32%; Mtb heat-shock: -14.7%. Clc1cccc(N2CCC(NCc3cc[nH]n3)C2)c1 (stereo not drawn) read LdMetRS: 19.1%; Mtb heat-shock: -2.653%. CCC1CCCCN1C(=O)Cn1nc(-c2cc(C)oc2C)cc(N)c1=O (stereo not drawn) gave LdMetRS: 20.94%; Mtb heat-shock: 15.83%. With COc1cc(C(=O)N2CCC3(CC2)Nc2ccccc2NC3=O)ccn1 the screen gave LdMetRS: 6.02%; Mtb heat-shock: -11.45%.

Cn1c(CCNC(=O)CC[C@@H]2CCCN3CCCC[C@H]23)n[nH]c1=O read LdMetRS: 11.2%. CC(=O)NCC(=O)N1Cc2ccnn2CC(COCCN(C)C)C1 (stereo not drawn) gave LdMetRS: 6.667%; Mtb heat-shock: 3.746%. With CC(C)N1CCc2[nH]nc(C(=O)N3CCOCC3)c2C1.O=C(O)C(F)(F)F.O=C(O)C(F)(F)F the screen gave Mtb heat-shock: -4.82%. COc1ccccc1C1CCN(C(=O)c2ncccc2OC(C)C)C1 (stereo not drawn) gave LdMetRS: 3.631%; Mtb heat-shock: -16.03%. Result for O=C(NCc1cccs1)[C@@H]1CC[C@@H]2[C@@H](CCN2c2ncccn2)O1 was LdMetRS: 18.73%. CCN(C(=O)c1ccc2nnc(C3CCN(C)C3)n2c1)C(C)C (stereo not drawn) read LdMetRS: 11.2%.

Result for Cc1ccnc(SCC(=O)Nc2csc3nc(=O)c(C)nn23)n1 was LdMetRS: 0.2584%; Mtb heat-shock: -1.854%. CN(C)C(=O)COC[C@]12COC[C@H]1CN(Cc1ccco1)C2 gave LdMetRS: 14.21%. For [H][C@@]12CN(Cc3cccc(Oc4ccccc4)c3)C[C@]1(C(=O)O)CNC2=O the result was Mtb heat-shock: 6.162%. Cc1nnc(NC(=O)NC2CCCc3c2cnn3CCO)s1 (stereo not drawn) gave LdMetRS: 4.244%; Mtb heat-shock: -0.4183%. CN(Cc1cn[nH]c1-c1ccc(F)cc1)C(=O)CCC1CC1 read LdMetRS: 6.87%; Mtb heat-shock: -7.873%. CN(Cc1ccc(-n2cncn2)cc1)Cc1ncc[nH]1 read LdMetRS: 6.4%; Mtb heat-shock: -18.14%.

COCCN(Cc1cnn(C)c1)C(=O)C1CCC(=O)N(C2CCCC2)C1 (stereo not drawn) read LdMetRS: 13.2%; Mtb heat-shock: 11.22%. For COc1c(NS(=O)(=O)c2cc(C)ccc2C)c(C)nn1C the result was Mtb heat-shock: 8.945%. COCC1CN(Cc2cccnc2)Cc2nnn(CC3CC3)c21.O=C(O)C(F)(F)F.O=C(O)C(F)(F)F (stereo not drawn) read Mtb heat-shock: -29.99%. With Cc1noc(C)c1-c1n[nH]c2c1CN(S(=O)(=O)c1cccs1)CC2 the screen gave LdMetRS: 10.03%; Mtb heat-shock: 4.084%. Cc1ccsc1C(=O)N1CCCn2c(nc(CN(C)C)cc2=O)C1.O=C(O)C(F)(F)F gave Mtb heat-shock: -25.87%. CCC1(CC)CC(=O)N(CC(O)c2cccc(F)c2)C1=O (stereo not drawn) gave LdMetRS: 11.92%; Mtb heat-shock: -0.327%.

Cc1oc(-c2ccsc2)nc1CC(=O)NCC(=O)Nc1cn[nH]c1 read LdMetRS: 12.81%; Mtb heat-shock: -1.964%.

5 of the entries, repeated:

| compound | LdMetRS | Mtb heat-shock |
|---|---|---|
| `Cc1cccc(CN2CCOCC3(CCN(C4CCOCC4)C3)C2)n1` (stereo not drawn) | 12.42 | - |
| `Fc1ccc(NCc2ncc[nH]2)cc1Br` | 6.62 | -1.01 |
| `[H][C@]12CCN(C(C)=O)[C@@]1([H])CC[C@H](COCC(=O)N1CCCC1)O2` | - | -28.84 |
| `CN(Cc1cn[nH]c1-c1ccc(F)cc1)C(=O)CCC1CC1` | 6.87 | -7.873 |
| `COCCN(Cc1cnn(C)c1)C(=O)C1CCC(=O)N(C2CCCC2)C1` (stereo not drawn) | 13.2 | 11.22 |

Source: ChEMBL document CHEMBL3988442, “University of Dundee, Small-Polar-MMV Screening Library” (2021).